Source: ChEMBL document CHEMBL3988442, “University of Dundee, Small-Polar-MMV Screening Library” (2021).

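Growth of Mycobacterium tuberculosis over 4 days (cholesterol / DPPC medium with tyloxapol); the read-out is not stated. Concentration: 50 µM. Higher reads as more growth inhibition (inferred: compounds with an IC50 in retests scored well above the rest). Of about 69,000 compounds tested this way, about 370 (0.54%) reached 50% or more in at least one test.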

Values are the deposited “Percent Effect”, in %.
The record does not define 0% and 100%; most values in the screen are far below 50% and negative numbers occur (in some assays of this library far below -100).
Compounds were drawn at random from those tested, without regard to their results.
Two or more numbers in one place are separate tests of the same structure; such repeats can differ widely.

With Cc1nc(CN2CCCC(NCc3cnn(C)c3)C2)no1 (centres unmarked) the screen gave 0.2816%. With Cc1cc(NC(=O)Cn2ccccc2=O)n(C)n1 the screen gave -17.91%. Cc1cc(C)nc(C2CCCNC2)n1.Cl.Cl (centres unmarked) read -19.46%. COc1cc(C2(C(=O)NC3CCC4(CC3)OCCO4)CC2)ccc1C read 18.35%. Result for NC(=O)C1CCN(Cc2cc3c(cc2Br)OCCO3)C1 (centres unmarked) was -3.428%.

O=C(C1CCOC1)N1CCC(OCc2ccccc2)CC1 (centres unmarked) read 7.179%. For c1ccc(C2(NCC3CNc4ccnn4C3)CCC2)cc1 (centres unmarked) the result was -13.61%. COc1cccc(C(=O)N(C)C(C)c2c(C)n[nH]c2C)c1OC (centres unmarked) read -22.3%. Cc1nc(C)n(CC2CCCN(CCC(=O)Nc3cc(C)on3)C2)n1 (centres unmarked) gave 13.59%. With CN1CCN(c2ccc(NC(=O)c3ccccn3)c(C(F)(F)F)c2)CC1 the screen gave -15.85%.

For Cn1cc(C2CC3(CCN(C(=O)c4ccsc4)CC3)NC2=O)cn1 (centres unmarked) the result was -7.112% & -15.54%. For COc1c(C)cnc(CN2CCC(C(=O)N(C)C)CC2)c1C the result was -20.78%. O=S(=O)(NCCN1CCOCC1)c1cncc(Cl)c1 gave -4.223%. [H][C@@]12CCN(C[C@@H]1CC)[C@@H](CNC(=O)Nc1cccc(C#N)c1)C2 read -3.249%. COCCc1noc(-c2cn(CCc3ccccc3)nn2)n1 read 24.71%.

With O=C(c1cn(Cc2ccccc2)c2ncccc12)N1CCCCC1 the screen gave -21.97%. Cc1cc(C(=O)NCc2ccnc(N(C)C)c2)c(C)o1 read -13.98%. O=C(c1cccnc1-c1ccc2c(c1)OCCO2)N1CCCC1 read 8.07% & -2.256%. For Cl.N[C@@H](Cc1ccccc1)c1nnc(S(=O)(=O)Cc2cccc(Cl)c2)o1 the result was -15.38%. CO[C@@]1(C)C[C@@H](O)C12CCN(C(=O)C1(c3ccccc3F)CC1)CC2 gave 14.54%.

Cc1csc(CNC(=O)N(C)Cc2cnn(C)c2)n1 gave -8.213%. Result for O=C(N[C@@H]1CCN(C(=O)C2CCOCC2)C[C@H]1O)c1ccccn1 was 17.54% & 1.726%. Cc1ccc(C(=O)N2CCCC(n3cccn3)C2)cc1S(C)(=O)=O (centres unmarked) gave -4.914%. Cc1ccccc1-c1cncc(C2CCN(Cc3ccccn3)CC2)n1 read -3.03%. Result for CNC(=O)C1(CCCc2cnccn2)CCN1Cc1ccc(C)cc1 (centres unmarked) was 5.778% & -0.5808%.

For OC1(CN2CCCCC2)CCN(Cc2c[nH]c(CC3CCCC3)n2)C1 (centres unmarked) the result was -3.603%. Result for O=C(NC[C@@H]1CCCN1)c1cc(COc2cccc(C(F)(F)F)c2)[nH]n1 was 21.2%. O=C(O)C(F)(F)F.O=C(O)C(F)(F)F.O=C(O)C(F)(F)F.[H][C@@]12CCN(Cc3cccnc3)[C@@]1([H])CCN2Cc1ccc2c(c1)OCO2 gave 13.41%. Cc1cc(C(=O)NCC(=O)N2CCOCC2)nn1C(C)(C)C read 3.093%. For O=C(O)C(F)(F)F.O=C(c1ccc(F)cc1)N1CCC2(CC1)CC(N1CCOCC1)C2 the result was -0.6768% & -9.641%.

Cc1ccc(NC(=O)c2nc3c(s2)CCCN3C(C)C)cn1 gave -59.05%. N#Cc1c(C2CCOC2)cc(-c2ccc(N3CCCCC3)cc2)nc1N (centres unmarked) gave -2.097%. With O=C(O)C(F)(F)F.[H][C@@]12CN(C(=O)c3ccco3)C[C@]1([H])C(=O)N(Cc1csc(C)n1)C2 the screen gave -24.36%. With COCCCN1CCCN(C(C)C(=O)Nc2cccc(I)c2)CC1 (centres unmarked) the screen gave -6.156% & 6.461%. Result for CC(NC(=O)NCCn1ccnc1)c1ccc2c(c1)OCCCO2 (centres unmarked) was -13.96%.

For COc1cccc(F)c1C(C)NC(=O)NCc1cc(C(C)C)no1 (centres unmarked) the result was -4.727%. COc1ccc(-c2noc(-c3ccc(N4CCC[C@H]4CO)nc3)n2)cc1 read 14.81%. Result for CC(Nc1nc2c(cnn2C)c(=O)[nH]1)c1ccc2c(c1)CCCC2 (centres unmarked) was 12.53%. For O=C(O)C(F)(F)F.O=C(O)C(F)(F)F.[H][C@]12CCN(Cc3cccs3)[C@@]1([H])CC[C@H](COCc1ccccn1)O2 the result was -11.44% & -9.471%. Cc1nn(C)c(N(C)C)c1CNC(C)COc1cccc(F)c1 (centres unmarked) gave -14.8%.

COc1cccc(C(=O)C2CCCN(c3nccc(N)n3)C2)c1 (centres unmarked) read -2.543%. CN(C)S(=O)(=O)N1CC[C@]2(C[C@@H](Oc3cccnc3)CO2)C1.O=C(O)C(F)(F)F read -2.485%. CC(NC(=O)N(C)CCCOc1ccccc1)c1nncn1C (centres unmarked) gave 6.505%. CC(C)c1cccc(-n2cc(O)c(C(=O)NCCC(=O)N(C)C)n2)c1 gave -6.101%. For CN(Cc1cccs1)C(=O)Cn1cc(NC(=O)C(C)(C)C)cn1 the result was 17.36%.

With COc1ccsc1C(=O)N1CCCN(Cc2cscn2)CC1 the screen gave -8.753%. Result for CSc1ccc(C(=O)C2CCCN(C(=O)CCn3cnnn3)C2)cc1 (centres unmarked) was 11.54%. Cc1nn(C)c(Cl)c1C1CCCN1C(=O)c1cnn(C)c1C1CC1 (centres unmarked) gave -11.99%. COc1ccc(C)cc1NC(=O)Nc1cnc(N2CCCC2)nc1 read 16.2%. Result for Cc1ccc(N2CCN(C(=O)CCc3n[nH]c(C)n3)CC2=O)cc1 was 18.4%.

For Cl.Cl.O=C(NCc1cncc2c1CCN(Cc1ccoc1)C2)C1CC1 the result was 8.355%. CC(C)c1noc(CCNC(=O)NCC2Cc3ccccc3O2)n1 (centres unmarked) read -6.708% & -22.28%. Result for COc1cccc(-c2cc(C(=O)NCCCn3nc(C)cc3C)[nH]n2)c1 was 25.07%. For Cc1nc(C2CCCN(C(=O)c3cc(-c4ccccc4)[nH]n3)C2)no1 (centres unmarked) the result was 20.35%. With Cc1cccc(O[C@H]2COCCN(Cc3sc(C)nc3C)C2)n1 the screen gave -20.96%.

CC(NC(=O)c1ccoc1)c1ccc2c(c1)CCC(=O)N2 (centres unmarked) read 1.956%. Result for CCN(C)C[C@@H]1CN(C(=O)c2cc(-c3ccc(F)cc3)n[nH]2)C[C@@H]1CO was 8.018%. Result for O=C(CCN1CCOCC1)Nc1cccc(CNCc2cccs2)c1 was -4.151%. CCCN(CCc1ccccn1)C(=O)Cn1cc(C)cn1 read 11.69%.

The last 7 entries again:

| structure | percent effect |
|---|---|
| `COc1cccc(-c2cc(C(=O)NCCCn3nc(C)cc3C)[nH]n2)c1` | 25.07 |
| `Cc1nc(C2CCCN(C(=O)c3cc(-c4ccccc4)[nH]n3)C2)no1` (centres unmarked) | 20.35 |
| `Cc1cccc(O[C@H]2COCCN(Cc3sc(C)nc3C)C2)n1` | -20.96 |
| `CC(NC(=O)c1ccoc1)c1ccc2c(c1)CCC(=O)N2` (centres unmarked) | 1.956 |
| `CCN(C)C[C@@H]1CN(C(=O)c2cc(-c3ccc(F)cc3)n[nH]2)C[C@@H]1CO` | 8.018 |
| `O=C(CCN1CCOCC1)Nc1cccc(CNCc2cccs2)c1` | -4.151 |
| `CCCN(CCc1ccccn1)C(=O)Cn1cc(C)cn1` | 11.69 |